One experiment concerns the target T1, ERGIC53 (UniProt P49257).
T1 sequence: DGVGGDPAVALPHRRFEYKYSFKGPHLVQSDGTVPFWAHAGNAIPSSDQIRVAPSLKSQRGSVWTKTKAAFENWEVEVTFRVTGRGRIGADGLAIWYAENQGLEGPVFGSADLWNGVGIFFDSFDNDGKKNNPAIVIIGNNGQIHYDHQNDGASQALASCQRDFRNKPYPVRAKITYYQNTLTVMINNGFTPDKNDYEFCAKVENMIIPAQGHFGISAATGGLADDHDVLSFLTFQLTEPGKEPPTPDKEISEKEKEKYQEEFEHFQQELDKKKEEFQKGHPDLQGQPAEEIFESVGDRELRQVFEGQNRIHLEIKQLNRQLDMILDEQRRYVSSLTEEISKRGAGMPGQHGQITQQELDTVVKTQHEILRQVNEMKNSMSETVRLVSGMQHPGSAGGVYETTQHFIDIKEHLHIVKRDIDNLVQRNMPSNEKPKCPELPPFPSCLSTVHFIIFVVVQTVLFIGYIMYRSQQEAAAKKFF
As to the kind of experiment: co-IP; Supplementary Fig. 11: interaction of STING and ERGIC53, weakened by TMEM120A knock-down; method, cells and constructs not shown.

Amino acid sequences for entries named in this document (tags omitted).
UniProt Q86WV6: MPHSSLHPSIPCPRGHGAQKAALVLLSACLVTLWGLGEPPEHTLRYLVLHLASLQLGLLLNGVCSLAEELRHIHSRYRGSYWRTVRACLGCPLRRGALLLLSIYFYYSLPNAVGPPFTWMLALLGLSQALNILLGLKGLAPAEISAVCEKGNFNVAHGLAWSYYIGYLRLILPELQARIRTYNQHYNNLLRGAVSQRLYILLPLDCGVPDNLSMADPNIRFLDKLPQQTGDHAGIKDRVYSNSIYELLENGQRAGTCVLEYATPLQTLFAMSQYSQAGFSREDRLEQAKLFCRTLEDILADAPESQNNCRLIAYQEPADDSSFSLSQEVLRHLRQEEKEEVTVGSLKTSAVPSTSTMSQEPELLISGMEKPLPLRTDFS

In experiment [1] the target is T2, HA-FLAG-tagged TMEM120A (human) (UniProt Q9BXJ8).
T2 sequence: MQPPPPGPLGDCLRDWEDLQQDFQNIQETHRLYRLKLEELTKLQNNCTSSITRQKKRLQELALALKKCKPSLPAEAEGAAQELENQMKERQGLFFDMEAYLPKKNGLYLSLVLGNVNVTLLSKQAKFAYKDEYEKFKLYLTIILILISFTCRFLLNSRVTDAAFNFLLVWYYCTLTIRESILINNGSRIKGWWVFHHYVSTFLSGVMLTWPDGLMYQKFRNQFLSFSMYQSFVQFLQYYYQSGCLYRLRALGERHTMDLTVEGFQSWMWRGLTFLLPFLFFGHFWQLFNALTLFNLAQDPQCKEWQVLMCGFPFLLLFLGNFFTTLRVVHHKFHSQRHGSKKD
As to the kind of experiment: co-IP; FLAG-tag based immunoprecipitation (anti-FLAG M2 magnetic beads, overnight 4 °C, FLAG peptide elution) from U87MG cells stably expressing HA-FLAG-TMEM120A, infected with ZIKV for 48 h; blot with STING antibody; lysis buffer 20 mM Tris-HCl pH 7.5, 150 mM NaCl, 2 mM EDTA, 1% Nonidet P-40.

Experiment [2] has as its target STING (as in the experiments of Supplementary Figs. 7, 8, 11 and 12; construct not shown) (UniProt Q86WV6). As to the kind of experiment: co-IP; Supplementary Fig. 8: IP of TMEM120A truncations NTD and CTD with STING; cells, tags and bait not shown.
The target in experiment [3] is N-terminal HA-FLAG tagged STING (UniProt Q86WV6). The experiment can be described thus: co-IP; FLAG-tag based immunoprecipitation (anti-FLAG M2 magnetic beads, overnight 4 °C, FLAG peptide elution) from HEK293T cells transiently transfected for 48 h with HA-FLAG-STING and TMEM120A-V5; blot with TMEM120A antibodies; lysis buffer 20 mM Tris-HCl pH 7.5, 150 mM NaCl, 2 mM EDTA, 1% Nonidet P-40.

Experiment [4] has as its target STING (as in the experiments of Supplementary Figs. 7, 8, 11 and 12; construct not shown) (UniProt Q86WV6). As to the kind of experiment: co-IP; Supplementary Fig. 7: with ZIKV or HSV-1 infection (interaction enhanced); cells and constructs not shown.
For experiment [5] the target is unchanged. As to the kind of experiment: co-IP; Supplementary Fig. 12b, c: association of TMEM120A with STING with SEC23A knock-down, and of TMEM120A with COPII components; cells and constructs not shown.

Results are given in words; binding and its absence hold for the method and conditions named. In cells and extracts the contact can be indirect. Some results given as binding are weak or reduced against the parent protein; the word gives no strength. For part of these data: Where a sequence is shown, tags or fusion partners need not be part of it.

Regarding “STING (as in the experiments of Supplementary Figs. 7, 8, 11 and 12; construct not shown) (from UniProt Q86WV6 1-379)”, the binding result in the experiment with ERGIC53 is given as “binds”.
“endogenous STING (from UniProt Q86WV6 1-379)”: the binding result in experiment [1] is given as “binds”.

B1: TMEM120A CTD (C-terminal domain, aa 136-343) (domain or fragment, UniProt Q9BXJ8 136-343)
chain: FKLYLTIILILISFTCRFLLNSRVTDAAFNFLLVWYYCTLTIRESILINNGSRIKGWWVFHHYVSTFLSGVMLTWPDGLMYQKFRNQFLSFSMYQSFVQFLQYYYQSGCLYRLRALGERHTMDLTVEGFQSWMWRGLTFLLPFLFFGHFWQLFNALTLFNLAQDPQCKEWQVLMCGFPFLLLFLGNFFTTLRVVHHKFHSQRHGSKKD
For B1, in experiment [2], the binding entry is reported as “binds”.

B2: C-terminal V5-TMEM120A (protein, UniProt Q9BXJ8 1-343)
chain: MQPPPPGPLGDCLRDWEDLQQDFQNIQETHRLYRLKLEELTKLQNNCTSSITRQKKRLQELALALKKCKPSLPAEAEGAAQELENQMKERQGLFFDMEAYLPKKNGLYLSLVLGNVNVTLLSKQAKFAYKDEYEKFKLYLTIILILISFTCRFLLNSRVTDAAFNFLLVWYYCTLTIRESILINNGSRIKGWWVFHHYVSTFLSGVMLTWPDGLMYQKFRNQFLSFSMYQSFVQFLQYYYQSGCLYRLRALGERHTMDLTVEGFQSWMWRGLTFLLPFLFFGHFWQLFNALTLFNLAQDPQCKEWQVLMCGFPFLLLFLGNFFTTLRVVHHKFHSQRHGSKKD
B2: the binding entry in experiment [3] was “binds”.

B3: TMEM120A (as in the experiments of Supplementary Figs. 7 and 12; construct not shown) (protein, UniProt Q9BXJ8 1-343)
chain: MQPPPPGPLGDCLRDWEDLQQDFQNIQETHRLYRLKLEELTKLQNNCTSSITRQKKRLQELALALKKCKPSLPAEAEGAAQELENQMKERQGLFFDMEAYLPKKNGLYLSLVLGNVNVTLLSKQAKFAYKDEYEKFKLYLTIILILISFTCRFLLNSRVTDAAFNFLLVWYYCTLTIRESILINNGSRIKGWWVFHHYVSTFLSGVMLTWPDGLMYQKFRNQFLSFSMYQSFVQFLQYYYQSGCLYRLRALGERHTMDLTVEGFQSWMWRGLTFLLPFLFFGHFWQLFNALTLFNLAQDPQCKEWQVLMCGFPFLLLFLGNFFTTLRVVHHKFHSQRHGSKKD
On to B3, for which the binding result in experiment [4] and in experiment [5] was “binds” throughout.

(Values after article PMC8748537.)
